In paper PMC11579460:
These are yes or no findings as the source states them, for the method shown. In cells and extracts the contact can be indirect. Some results given as binding are weak or reduced against the parent protein; the word gives no strength. For some of these results: Tags and fused reporters may be left off the sequences shown.

Chains of the proteins cited; added tags and fusions are not shown.
UniProt Q96LD4: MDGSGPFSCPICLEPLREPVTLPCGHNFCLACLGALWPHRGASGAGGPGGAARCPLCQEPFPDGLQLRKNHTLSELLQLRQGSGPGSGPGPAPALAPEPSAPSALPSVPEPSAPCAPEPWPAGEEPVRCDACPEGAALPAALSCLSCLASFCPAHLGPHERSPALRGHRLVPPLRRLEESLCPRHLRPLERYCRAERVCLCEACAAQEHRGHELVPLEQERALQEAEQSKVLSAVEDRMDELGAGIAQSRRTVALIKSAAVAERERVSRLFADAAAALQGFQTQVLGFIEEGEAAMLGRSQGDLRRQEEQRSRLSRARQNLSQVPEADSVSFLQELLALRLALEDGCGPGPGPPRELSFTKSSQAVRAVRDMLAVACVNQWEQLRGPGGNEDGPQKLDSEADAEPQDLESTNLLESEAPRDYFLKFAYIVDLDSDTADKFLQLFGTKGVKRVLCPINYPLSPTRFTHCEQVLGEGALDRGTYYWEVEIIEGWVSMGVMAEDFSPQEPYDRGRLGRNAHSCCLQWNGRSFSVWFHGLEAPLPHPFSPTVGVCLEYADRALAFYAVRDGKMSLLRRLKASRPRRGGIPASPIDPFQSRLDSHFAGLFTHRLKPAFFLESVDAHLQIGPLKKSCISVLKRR
UniProt Q96SW2: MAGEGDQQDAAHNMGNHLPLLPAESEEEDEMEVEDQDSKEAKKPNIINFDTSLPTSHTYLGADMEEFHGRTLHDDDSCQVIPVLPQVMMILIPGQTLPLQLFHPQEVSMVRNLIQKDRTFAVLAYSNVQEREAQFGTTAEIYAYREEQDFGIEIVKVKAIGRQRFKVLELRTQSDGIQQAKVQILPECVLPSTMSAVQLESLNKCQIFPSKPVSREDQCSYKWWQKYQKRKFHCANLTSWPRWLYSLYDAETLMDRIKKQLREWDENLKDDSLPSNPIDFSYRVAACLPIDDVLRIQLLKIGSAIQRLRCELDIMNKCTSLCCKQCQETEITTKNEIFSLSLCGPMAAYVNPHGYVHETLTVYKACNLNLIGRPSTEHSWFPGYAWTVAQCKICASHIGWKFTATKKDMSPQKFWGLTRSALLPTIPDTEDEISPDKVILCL
UniProt O95863: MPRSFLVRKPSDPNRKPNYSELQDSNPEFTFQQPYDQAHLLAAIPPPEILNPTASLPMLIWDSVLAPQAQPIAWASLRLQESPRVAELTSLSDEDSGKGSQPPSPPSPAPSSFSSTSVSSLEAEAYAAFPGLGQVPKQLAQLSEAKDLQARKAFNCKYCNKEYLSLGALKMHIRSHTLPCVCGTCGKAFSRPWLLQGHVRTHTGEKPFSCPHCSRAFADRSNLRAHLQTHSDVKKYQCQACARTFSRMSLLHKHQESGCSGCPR

Columns and labels:
[1] = target: TRIM47 (endogenous, SMMC7721) (human (endogenous in SMMC7721)) (UniProt Q96LD4); test: co-IP; SMMC7721 cells treated with HY12759 for 8 h; total extracts immunoprecipitated with anti-TRIM47 antibody; blot with anti-CRBN; endogenous proteins
MYC-CARM1 (human) = target: T1, MYC-CARM1 (human) (UniProt Q86X55); test: co-IP; HEK293T co-transfected with FLAG-TRIM47 and a MYC-tagged partner for 48 h; RIPA lysis; anti-FLAG or anti-MYC antibody overnight at 4 °C, protein A/G magnetic beads 2 h; western blot
T1 sequence: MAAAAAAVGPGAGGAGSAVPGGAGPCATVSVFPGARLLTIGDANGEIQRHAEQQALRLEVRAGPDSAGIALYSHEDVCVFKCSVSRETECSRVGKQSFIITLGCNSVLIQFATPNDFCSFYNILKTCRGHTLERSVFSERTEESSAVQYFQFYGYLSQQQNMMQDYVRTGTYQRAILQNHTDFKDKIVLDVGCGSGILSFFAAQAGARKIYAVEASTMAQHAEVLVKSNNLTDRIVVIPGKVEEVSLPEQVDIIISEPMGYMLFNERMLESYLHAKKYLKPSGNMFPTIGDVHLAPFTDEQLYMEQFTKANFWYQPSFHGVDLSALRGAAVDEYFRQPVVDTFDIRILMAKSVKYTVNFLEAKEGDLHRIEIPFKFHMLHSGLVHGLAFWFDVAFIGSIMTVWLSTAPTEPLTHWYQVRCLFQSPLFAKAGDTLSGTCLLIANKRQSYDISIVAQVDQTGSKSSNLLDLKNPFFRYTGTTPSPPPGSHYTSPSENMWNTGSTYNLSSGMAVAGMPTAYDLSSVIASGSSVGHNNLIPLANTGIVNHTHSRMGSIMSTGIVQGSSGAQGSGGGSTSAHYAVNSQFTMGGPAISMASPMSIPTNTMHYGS

FLAG-TRIM47 (human) = FLAG-TRIM47 (human) (UniProt Q96LD4); test: as above

Substance	binding (FLAG-TRIM47 (human))	further results
CRBN (endogenous, SMMC7721) (from UniProt Q96SW2 1-442)		binding [1]: binds
FLAG-TRIM47 (from UniProt Q96LD4 1-638)		binding (MYC-CARM1 (human)): binds
MYC-CRBN (from UniProt Q96SW2 1-442)	binds	
MYC-SNAI1 (from UniProt O95863 1-264)	binds	
